Among the data in paper PMC6265344 are binding values, retold here.

The chains behind the UniProt entries cited, without tags or fusion partners. Where a name states a change or a piece, a line headed by the entry shows the natural chain unless it says otherwise.
UniProt Q05639: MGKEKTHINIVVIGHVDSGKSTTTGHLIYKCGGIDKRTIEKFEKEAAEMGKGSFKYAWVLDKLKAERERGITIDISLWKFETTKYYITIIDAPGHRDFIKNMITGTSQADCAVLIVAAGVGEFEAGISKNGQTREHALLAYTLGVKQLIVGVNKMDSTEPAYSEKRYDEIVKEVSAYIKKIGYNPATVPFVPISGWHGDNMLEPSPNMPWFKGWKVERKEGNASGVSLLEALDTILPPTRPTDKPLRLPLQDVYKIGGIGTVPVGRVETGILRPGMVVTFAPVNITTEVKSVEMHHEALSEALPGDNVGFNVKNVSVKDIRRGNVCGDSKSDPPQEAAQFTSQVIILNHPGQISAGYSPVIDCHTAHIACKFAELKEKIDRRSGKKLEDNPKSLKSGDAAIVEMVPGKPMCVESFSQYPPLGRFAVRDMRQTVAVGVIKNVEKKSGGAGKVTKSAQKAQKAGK
UniProt P19525: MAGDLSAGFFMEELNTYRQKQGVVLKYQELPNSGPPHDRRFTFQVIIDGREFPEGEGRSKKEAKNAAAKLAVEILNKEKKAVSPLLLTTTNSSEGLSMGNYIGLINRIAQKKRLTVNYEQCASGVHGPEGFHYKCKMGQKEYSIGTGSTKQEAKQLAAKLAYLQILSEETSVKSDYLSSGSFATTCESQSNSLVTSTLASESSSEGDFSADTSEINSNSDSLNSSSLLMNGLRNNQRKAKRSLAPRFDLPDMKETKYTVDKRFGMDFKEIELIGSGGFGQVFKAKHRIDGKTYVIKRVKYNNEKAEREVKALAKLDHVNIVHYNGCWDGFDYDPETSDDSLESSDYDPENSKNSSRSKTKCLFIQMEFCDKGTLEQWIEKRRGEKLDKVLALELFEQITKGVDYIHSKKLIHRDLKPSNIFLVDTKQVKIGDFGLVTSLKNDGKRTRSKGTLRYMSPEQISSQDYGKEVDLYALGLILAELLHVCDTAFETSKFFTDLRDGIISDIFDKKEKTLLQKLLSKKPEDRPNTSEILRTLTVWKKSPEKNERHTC
UniProt P07339: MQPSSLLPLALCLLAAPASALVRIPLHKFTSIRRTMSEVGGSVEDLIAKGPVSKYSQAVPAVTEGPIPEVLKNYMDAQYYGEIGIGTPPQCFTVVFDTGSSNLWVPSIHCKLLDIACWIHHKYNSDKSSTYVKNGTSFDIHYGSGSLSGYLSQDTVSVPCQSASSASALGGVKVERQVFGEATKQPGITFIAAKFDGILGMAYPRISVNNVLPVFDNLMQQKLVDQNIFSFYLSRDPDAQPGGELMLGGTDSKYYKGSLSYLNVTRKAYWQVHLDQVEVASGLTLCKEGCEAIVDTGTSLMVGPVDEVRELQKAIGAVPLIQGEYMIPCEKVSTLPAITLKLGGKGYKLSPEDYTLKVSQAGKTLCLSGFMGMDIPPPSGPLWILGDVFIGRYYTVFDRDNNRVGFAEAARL

This assay addresses eEF1A2-tGFP (human) (UniProt Q05639). The experiment in a line: affinity purification with mass spectrometry; lysate of HeLa cells stably transfected with eEF1A2-tGFP immunoprecipitated with anti-tGFP antibody; wt HeLa cells processed identically as control; mass spectrometry-based proteomics, hits filtered.

Results are given in words; binding and its absence hold for the method and conditions named. Binding seen in cells or lysates may run through a third protein. These calls come from enrichment with a bait or labelling near it, and not all partners need be listed.

Turning to “Interferon-induced, double-stranded RNA-activated protein kinase (PKR) (from UniProt P19525 1-551) (enzyme)”, the binding entry is listed as “binds”.

As to “Cathepsin D (from UniProt P07339) (enzyme)”, the binding entry is “binds”.

B1: Zinc-finger protein 622 (protein, UniProt Q969S3 1-477)
chain: MATYTCITCRVAFRDADMQRAHYKTDWHRYNLRRKVASMAPVTAEGFQERVRAQRAVAEEESKGSATYCTVCSKKFASFNAYENHLKSRRHVELEKKAVQAVNRKVEMMNEKNLEKGLGVDSVDKDAMNAAIQQAIKAQPSMSPKKAPPAPAKEARNVVAVGTGGRGTHDRDPSEKPPRLQWFEQQAKKLAKQQEEDSEEEEEDLDGDDWEDIDSDEELECEDTEAMDDVVEQDAEEEEAEEGPPLGAIPITDCLFCSHHSSSLMKNVAHMTKDHSFFIPDIEYLSDIKGLIKYLGEKVGVGKICLWCNEKGKSFYSTEAVQAHMNDKSHCKLFTDGDAALEFADFYDFRSSYPDHKEGEDPNKAEELPSEKNLEYDDETMELILPSGARVGHRSLMRYYKQRFGLSRAVAVAKNRKAVGRVLQQYRALGWTGSTGAALMRERDMQYVQRMKSKWMLKTGMKNNATKQMHFRVQVRF
B1: the binding entry is listed as “binds”.

B2: 3-Hydroxyacyl-CoA dehydrogenase type-2 (enzyme, UniProt Q99714 1-261)
chain: MAAACRSVKGLVAVITGGASGLGLATAERLVGQGASAVLLDLPNSGGEAQAKKLGNNCVFAPADVTSEKDVQTALALAKGKFGRVDVAVNCAGIAVASKTYNLKKGQTHTLEDFQRVLDVNLMGTFNVIRLVAGEMGQNEPDQGGQRGVIINTASVAAFEGQVGQAAYSASKGGIVGMTLPIARDLAPIGIRVMTIAPGLFGTPLLTSLPEKVCNFLASQVPFPSRLGDPAEYAHLVQAIIENPFLNGEVIRLDGAIRMQP
B2: the binding entry was “binds”.

B3: Peroxisomal multifunctional enzyme type 2 (enzyme, UniProt P51659 1-736)
chain: MGSPLRFDGRVVLVTGAGAGLGRAYALAFAERGALVVVNDLGGDFKGVGKGSLAADKVVEEIRRRGGKAVANYDSVEEGEKVVKTALDAFGRIDVVVNNAGILRDRSFARISDEDWDIIHRVHLRGSFQVTRAAWEHMKKQKYGRIIMTSSASGIYGNFGQANYSAAKLGLLGLANSLAIEGRKSNIHCNTIAPNAGSRMTQTVMPEDLVEALKPEYVAPLVLWLCHESCEENGGLFEVGAGWIGKLRWERTLGAIVRQKNHPMTPEAVKANWKKICDFENASKPQSIQESTGSIIEVLSKIDSEGGVSANHTSRATSTATSGFAGAIGQKLPPFSYAYTELEAIMYALGVGASIKDPKDLKFIYEGSSDFSCLPTFGVIIGQKSMMGGGLAEIPGLSINFAKVLHGEQYLELYKPLPRAGKLKCEAVVADVLDKGSGVVIIMDVYSYSEKELICHNQFSLFLVGSGGFGGKRTSDKVKVAVAIPNRPPDAVLTDTTSLNQAALYRLSGDWNPLHIDPNFASLAGFDKPILHGLCTFGFSARRVLQQFADNDVSRFKAIKARFAKPVYPGQTLQTEMWKEGNRIHFQTKVQETGDIVISNAYVDLAPTSGTSAKTPSEGGKLQSTFVFEEIGRRLKDIGPEVVKKVNAVFEWHITKGGNIGAKWTIDLKSGSGKVYQGPAKGAADTTIILSDEDFMEVVLGKLDPQKAFFSGRLKARGNIMLSQKLQMILKDYAKL
On to B3, for which the binding result is listed as “binds”.
